The target in assay [1] is T1, ABRACL, endogenous in HCT116 cells (human (endogenous in HCT116)) (UniProt Q9P1F3).
T1 sequence: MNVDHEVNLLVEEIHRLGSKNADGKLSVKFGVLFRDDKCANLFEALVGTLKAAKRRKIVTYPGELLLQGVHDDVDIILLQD
Nature of the assay: proximity ligation; Duolink in situ PLA on fixed, permeabilized HCT116 cells plated on fibronectin; rabbit anti-ABRACL and mouse anti-cofilin; shLuc control against ABRACL- or cofilin-knockdown cells.

Sequences of proteins named here, by UniProt entry; tags and fusion partners are left off.
UniProt P23528: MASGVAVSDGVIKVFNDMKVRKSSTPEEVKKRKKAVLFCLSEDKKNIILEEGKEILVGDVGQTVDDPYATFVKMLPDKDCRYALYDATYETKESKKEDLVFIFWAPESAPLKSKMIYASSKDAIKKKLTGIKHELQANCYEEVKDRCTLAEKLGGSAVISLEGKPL

In assay [2] the target is T2, ABRACL-Myc-His (human) (UniProt Q9P1F3).
T2 sequence: T1 sequence
In words: co-IP; lysates of cells transfected with control vector or pcDNA3.1Myc/His-ABRACL; immunoprecipitation with anti-Myc antibodies or IgG; Western analysis.

No constants are given. Whether binding was seen depends on the method and setting. In cells and extracts the contact can be indirect. Some results given as binding are weak or reduced against the parent protein; the word gives no strength. For some assays here: Sequences can lack the tags named with a protein.

With “cofilin, endogenous in HCT116 cells (from UniProt P23528 1-166)”, in assay [1], the binding entry was “binds”.

In the case of “cofilin, endogenous in the transfected cells used for co-immunoprecipitation (from UniProt P23528 1-166)”, in assay [2], the binding entry is “binds”.

(Values after PMC7922284.)
